Small-molecule microarray binding calls

Calls as published in the ROBIN set (doi:10.1002/anie.202211358).

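Each compound is printed as two spots on a slide made to bind it covalently, so it has no test concentration; the read-out is fluorescence of the bound, labelled oligonucleotide. For the PreQ1, TPP and SAM-II riboswitches the laboratory earlier reported (doi:10.1038/s41467-019-09493-3) 1 µM RNA, 2 h, and a rule that included a mean Z-score above 3 (spot signal-to-noise against the whole library), a score well above that on a control array, and duplicate spots agreeing (coefficient of variation under 100). The data file gives only the calls; its cut-offs may differ, and compounds hitting several targets are kept. These are primary screening calls, not affinities; a compound without a hit may have attached poorly or may still bind in solution.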 A compound is marked hit if it was called a hit and no hit if it was screened but was not. The compounds are a random part of those screened. A target missing from an entry has no call listed here.

Targets (5′ to 3′):
TPP: TPP riboswitch RNA three-way junction, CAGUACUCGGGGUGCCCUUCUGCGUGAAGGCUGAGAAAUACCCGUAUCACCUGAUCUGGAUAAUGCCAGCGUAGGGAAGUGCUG. About 160 hits among about 24,000 compounds.
SAM-II: SAM-II riboswitch RNA pseudoknot, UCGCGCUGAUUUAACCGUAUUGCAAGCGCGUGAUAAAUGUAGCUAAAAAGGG. About 200 hits among about 21,000 compounds.
PreQ1: PreQ1 riboswitch RNA pseudoknot, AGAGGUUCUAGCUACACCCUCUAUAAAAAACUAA. From B. subtilis. About 170 hits among about 24,000 compounds.

For Cn1cnc2cc(NCc3cccc(Br)c3)ccc21 the calls were TPP: no hit; SAM-II: no hit; PreQ1: no hit. With N#Cc1c(-c2cccc3cnccc23)cc(-c2ccco2)nc1N the screen gave TPP: no hit; SAM-II: no hit; PreQ1: no hit. With Cc1ccsc1-c1cn(C(CO)Cc2ccc(Cl)cc2)nn1 (configuration not stated) the screen gave TPP: no hit; SAM-II: no hit; PreQ1: no hit. With Cc1cc(C)c2c(n1)sc1c(N3CCN(CCO)CC3)ncnc12 the screen gave TPP: no hit; SAM-II: no hit; PreQ1: no hit. Cc1ccc(Nc2cc(N3CCN(S(=O)(=O)c4ccccc4Cl)CC3)nc(C)n2)cc1 was scored TPP: no hit; PreQ1: no hit. For Cc1ccccc1Cc1nnc(NC(=O)CC2CNCCO2)s1 (configuration not stated) the calls were TPP: no hit; SAM-II: no hit; PreQ1: no hit.

CNC(=O)c1cc(Oc2ccc(NC(=O)Nc3ccc(Cl)c(C(F)(F)F)c3)c(F)c2)ccn1 was scored TPP: no hit; SAM-II: no hit; PreQ1: no hit. Calls for O=C(c1ccc(CO)o1)N1CCN(Cc2ncc[nH]2)CC(O)C1 (configuration not stated) are TPP: no hit; SAM-II: no hit; PreQ1: no hit. For O=C(Nc1ccc(Cl)c(C(F)(F)F)c1)c1nccnc1CO the calls were TPP: no hit; SAM-II: no hit; PreQ1: no hit. For COc1ccccc1-n1nnc(-c2nc(-c3ccccc3)no2)c1N the calls were TPP: no hit; PreQ1: no hit. For CC(C)C[C@@H](N)C(=O)N(C)Cc1c[nH]nc1-c1ccccc1 the calls were TPP: no hit; SAM-II: no hit; PreQ1: no hit. For CC(C)c1nc(CN(C)C(=O)[C@H]2Cc3ccccc3CN2)cs1 the calls were TPP: no hit; SAM-II: no hit; PreQ1: no hit.

For CCCn1ncc(C(=O)NCCCNc2cccnc2)c1C the calls were TPP: no hit; SAM-II: no hit; PreQ1: no hit. With COc1ccc(-c2cc(C(F)(F)F)nc(N)n2)cc1 the screen gave TPP: no hit; SAM-II: no hit; PreQ1: no hit. COc1ccc(-n2ncc3c2CC(C)(C)CC3N)cc1 (configuration not stated) was scored TPP: no hit; SAM-II: no hit; PreQ1: no hit. Calls for Cc1nc(CC(=O)N(C)CC2(CO)CCOCC2)cs1 are TPP: no hit; SAM-II: no hit; PreQ1: no hit. For O=C1COc2ccc(S(=O)(=O)NCc3cc4n(n3)CCNC4)cc2N1 the calls were TPP: no hit; SAM-II: no hit; PreQ1: no hit. CCCc1nnc(N[C@H]2CN(C(C)C)C[C@@H]2O)o1 was scored TPP: no hit; SAM-II: no hit; PreQ1: no hit.

C=CCN1C(=O)C2(C(C#N)=C(N)OC(C)=C2C(=O)OC(C)(C)C)c2ccccc21 (configuration not stated) was scored TPP: no hit; SAM-II: no hit; PreQ1: no hit. For Nc1cccc(C(=O)CC2(O)C(=O)Nc3ccc(Br)cc32)c1 (configuration not stated) the calls were TPP: no hit; SAM-II: no hit; PreQ1: no hit.